According to publication PMC12644026:
These are yes or no findings as the source states them, for the method shown. In cells and extracts the contact can be indirect. Some results given as binding are weak or reduced against the parent protein; the word gives no strength.

Amino acid sequences for entries named in this document (tags omitted).
UniProt Q9UQB8: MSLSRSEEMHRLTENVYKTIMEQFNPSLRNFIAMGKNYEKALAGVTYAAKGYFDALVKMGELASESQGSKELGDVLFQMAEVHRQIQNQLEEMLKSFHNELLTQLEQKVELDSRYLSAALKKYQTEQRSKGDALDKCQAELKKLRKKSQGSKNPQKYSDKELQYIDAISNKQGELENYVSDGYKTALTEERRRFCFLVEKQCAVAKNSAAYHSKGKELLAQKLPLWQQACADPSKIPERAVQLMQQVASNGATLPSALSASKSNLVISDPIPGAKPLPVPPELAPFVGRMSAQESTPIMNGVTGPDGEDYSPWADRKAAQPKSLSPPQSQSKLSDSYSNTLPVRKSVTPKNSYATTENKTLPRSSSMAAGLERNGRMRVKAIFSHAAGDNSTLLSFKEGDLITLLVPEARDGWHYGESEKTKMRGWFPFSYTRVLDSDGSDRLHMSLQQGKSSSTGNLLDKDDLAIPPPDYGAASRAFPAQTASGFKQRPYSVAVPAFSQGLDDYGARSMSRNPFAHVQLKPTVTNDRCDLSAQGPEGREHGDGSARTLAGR
UniProt Q9P206: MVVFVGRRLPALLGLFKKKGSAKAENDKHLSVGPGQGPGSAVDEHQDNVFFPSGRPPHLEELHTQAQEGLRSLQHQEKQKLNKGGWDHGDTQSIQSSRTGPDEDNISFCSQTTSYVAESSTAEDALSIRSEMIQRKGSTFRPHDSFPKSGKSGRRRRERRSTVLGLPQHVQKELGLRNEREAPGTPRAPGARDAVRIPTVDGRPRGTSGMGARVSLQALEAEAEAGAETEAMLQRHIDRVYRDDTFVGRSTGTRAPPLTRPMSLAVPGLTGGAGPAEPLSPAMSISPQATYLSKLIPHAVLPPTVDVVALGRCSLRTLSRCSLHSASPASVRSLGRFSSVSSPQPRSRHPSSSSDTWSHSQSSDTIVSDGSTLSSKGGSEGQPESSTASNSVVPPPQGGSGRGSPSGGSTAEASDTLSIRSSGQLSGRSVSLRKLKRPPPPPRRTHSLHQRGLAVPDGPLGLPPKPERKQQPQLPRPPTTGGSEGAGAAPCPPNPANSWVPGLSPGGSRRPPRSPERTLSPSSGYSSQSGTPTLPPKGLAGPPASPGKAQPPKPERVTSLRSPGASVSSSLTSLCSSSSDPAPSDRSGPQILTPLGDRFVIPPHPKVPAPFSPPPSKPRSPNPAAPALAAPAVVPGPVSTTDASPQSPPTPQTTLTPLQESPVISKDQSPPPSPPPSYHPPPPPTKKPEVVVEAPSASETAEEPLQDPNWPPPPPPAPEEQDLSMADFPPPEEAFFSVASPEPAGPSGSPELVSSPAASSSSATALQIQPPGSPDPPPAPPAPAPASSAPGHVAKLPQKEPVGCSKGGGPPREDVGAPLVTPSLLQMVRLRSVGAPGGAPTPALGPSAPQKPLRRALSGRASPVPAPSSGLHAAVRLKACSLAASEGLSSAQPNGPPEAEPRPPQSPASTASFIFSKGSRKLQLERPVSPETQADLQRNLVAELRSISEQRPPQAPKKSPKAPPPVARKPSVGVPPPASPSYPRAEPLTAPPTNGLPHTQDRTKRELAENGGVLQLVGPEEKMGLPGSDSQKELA

Molecular target: GST-IRSp53 (UniProt Q9UQB8)
Test: pull-down; GST-IRSp53 (or GST-empty) on beads incubated 1 h at 4 C with TNE lysate of HEK293 cells overexpressing KIAA1522-mCherry; immunoblot for mCherry; only the target purified

KIAA1522-mCherry (from UniProt Q9P206 1-1035)
binding: binds
